US20260151516A1, “NEW PET TRACER FOR IMAGING OF THE FUNCTIONAL HEPATIC RESERVE” (Medizinische Universität Innsbruck, priority 2022, published 2026)

Test: PET/MR imaging
Format: in vivo
Settings: healthy C57Bl/6 male mice; for PET/MR imaging result (liver signal and background): dynamic 60 min PET after injection

Row | Compound | PET/MR imaging result (liver signal and background) | PET/MR activity accumulation in the bone compared with [^68Ga]Ga-NODAGA-TriGalactan (dynamic 60 min PET)
1 | CC(=O)N[C@H]1[C@H](OCCOCCOCCn2cc(CNC(=O)CCP(=O)([O-])CN3CCN(CP(=O)([O-])CCC(=O)NCc4cn(CCOCCOCCO[C@@H]5O[C@H](CO)[C@H](O)[C@H](O)[C@H]5NC(C)=O)nn4)CCN(CP(=O)([O-])CCC(=O)NCc4cn(CCOCCOCCO[C@@H]5O[C@H](CO)[C@H](O)[C@H](O)[C@H]5NC(C)=O)nn4)CC3)nn2)O[C@H](CO)[C@H](O)[C@@H]1O.[68Ga+3] [[^68Ga]Ga-TRAP-GalNAc] | intensive liver signal and low background activity in the rest of the body | –
2 | O=C(O)CN1CCN(CC(=O)O)CCN([C@H](CCC(=O)NCCCC(=O)NC(COCc2cn(CCOCCOCCO[C@@H]3O[C@H](CO)[C@H](O)[C@H](O)[C@H]3O)nn2)(COCc2cn(CCOCCOCCO[C@@H]3O[C@H](CO)[C@H](O)[C@H](O)[C@H]3O)nn2)COCc2cn(CCOCCOCCO[C@@H]3O[C@H](CO)[C@H](O)[C@H](O)[C@H]3O)nn2)C(=O)O)CC1 [[^68Ga]Ga-NODAGA-TriGalactan, metal not drawn] | intensive liver signal and low background activity in the rest of the body | –
3 | O=C(O)CN1CCN(CC(=O)O)CCN(CC(=O)NCCCC(=O)NC(COCc2cn(CCOCCOCCO[C@@H]3O[C@H](CO)[C@H](O)[C@H](O)[C@H]3O)nn2)(COCc2cn(CCOCCOCCO[C@@H]3O[C@H](CO)[C@H](O)[C@H](O)[C@H]3O)nn2)COCc2cn(CCOCCOCCO[C@@H]3O[C@H](CO)[C@H](O)[C@H](O)[C@H]3O)nn2)CC1 [[^18F]AlF-NOTA-TriGalactan] | intensive liver signal and low background activity in the rest of the body | some increased activity accumulation in the bone

Some compounds share one wording; it may come from a single statement.
